Results are given in words; binding and its absence hold for the method and conditions named. Binding seen in cells or lysates may run through a third protein. Some results given as binding are weak or reduced against the parent protein; the word gives no strength. For part of these data: Tags and fused reporters may be left off the sequences shown.
Columns and labels:
Assay in all cases: pull-down
[1] = target: T1, His-S1_(796-926) (His-S1_C), C-terminal domain of SPAG1 (human) (UniProt Q07617)
T1 sequence: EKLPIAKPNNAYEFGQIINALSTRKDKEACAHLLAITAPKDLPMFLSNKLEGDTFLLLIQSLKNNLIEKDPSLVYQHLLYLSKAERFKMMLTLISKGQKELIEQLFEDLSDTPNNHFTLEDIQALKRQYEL

Sequences of proteins named here, by UniProt entry; tags and fusion partners are left off. A change or cut given only in a name is not applied to a line headed by its entry. Residues count along the entry.
UniProt Q9NWS0: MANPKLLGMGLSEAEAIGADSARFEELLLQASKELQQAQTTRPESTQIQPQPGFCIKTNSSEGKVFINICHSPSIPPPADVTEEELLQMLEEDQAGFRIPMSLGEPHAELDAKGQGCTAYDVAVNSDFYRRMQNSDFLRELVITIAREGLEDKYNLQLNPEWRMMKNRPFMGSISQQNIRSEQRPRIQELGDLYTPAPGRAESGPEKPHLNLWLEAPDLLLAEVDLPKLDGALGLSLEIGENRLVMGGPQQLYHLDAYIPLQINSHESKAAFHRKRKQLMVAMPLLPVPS
UniProt Q9Y265: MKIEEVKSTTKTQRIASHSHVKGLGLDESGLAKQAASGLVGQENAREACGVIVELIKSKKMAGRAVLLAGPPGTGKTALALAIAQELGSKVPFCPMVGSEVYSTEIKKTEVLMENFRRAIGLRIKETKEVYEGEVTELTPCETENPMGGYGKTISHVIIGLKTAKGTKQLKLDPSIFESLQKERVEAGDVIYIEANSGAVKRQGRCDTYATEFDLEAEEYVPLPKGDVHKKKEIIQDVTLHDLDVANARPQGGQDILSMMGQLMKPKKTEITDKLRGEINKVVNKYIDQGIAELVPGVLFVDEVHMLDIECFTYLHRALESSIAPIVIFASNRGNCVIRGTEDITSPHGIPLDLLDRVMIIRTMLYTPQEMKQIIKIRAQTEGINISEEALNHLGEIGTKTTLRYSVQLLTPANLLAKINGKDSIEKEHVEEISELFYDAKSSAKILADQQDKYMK
UniProt Q9Y230: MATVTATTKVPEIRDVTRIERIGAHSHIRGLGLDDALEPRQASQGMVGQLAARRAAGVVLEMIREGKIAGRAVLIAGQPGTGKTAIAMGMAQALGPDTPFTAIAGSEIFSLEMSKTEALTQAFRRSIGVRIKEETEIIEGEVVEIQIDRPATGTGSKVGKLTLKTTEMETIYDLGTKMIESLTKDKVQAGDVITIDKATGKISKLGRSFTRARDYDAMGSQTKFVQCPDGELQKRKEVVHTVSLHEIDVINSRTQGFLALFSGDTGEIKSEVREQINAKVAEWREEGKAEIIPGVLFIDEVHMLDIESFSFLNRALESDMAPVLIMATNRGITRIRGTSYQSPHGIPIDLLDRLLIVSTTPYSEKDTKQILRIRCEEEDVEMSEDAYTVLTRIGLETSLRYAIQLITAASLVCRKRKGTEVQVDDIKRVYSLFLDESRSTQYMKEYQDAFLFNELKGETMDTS
UniProt Q9H6T3, residues 396-455: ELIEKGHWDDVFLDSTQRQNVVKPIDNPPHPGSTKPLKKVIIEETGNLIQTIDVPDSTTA

[2] = target: T2, His-S1 (full-length SPAG1) (human) (UniProt Q07617)
T2 sequence: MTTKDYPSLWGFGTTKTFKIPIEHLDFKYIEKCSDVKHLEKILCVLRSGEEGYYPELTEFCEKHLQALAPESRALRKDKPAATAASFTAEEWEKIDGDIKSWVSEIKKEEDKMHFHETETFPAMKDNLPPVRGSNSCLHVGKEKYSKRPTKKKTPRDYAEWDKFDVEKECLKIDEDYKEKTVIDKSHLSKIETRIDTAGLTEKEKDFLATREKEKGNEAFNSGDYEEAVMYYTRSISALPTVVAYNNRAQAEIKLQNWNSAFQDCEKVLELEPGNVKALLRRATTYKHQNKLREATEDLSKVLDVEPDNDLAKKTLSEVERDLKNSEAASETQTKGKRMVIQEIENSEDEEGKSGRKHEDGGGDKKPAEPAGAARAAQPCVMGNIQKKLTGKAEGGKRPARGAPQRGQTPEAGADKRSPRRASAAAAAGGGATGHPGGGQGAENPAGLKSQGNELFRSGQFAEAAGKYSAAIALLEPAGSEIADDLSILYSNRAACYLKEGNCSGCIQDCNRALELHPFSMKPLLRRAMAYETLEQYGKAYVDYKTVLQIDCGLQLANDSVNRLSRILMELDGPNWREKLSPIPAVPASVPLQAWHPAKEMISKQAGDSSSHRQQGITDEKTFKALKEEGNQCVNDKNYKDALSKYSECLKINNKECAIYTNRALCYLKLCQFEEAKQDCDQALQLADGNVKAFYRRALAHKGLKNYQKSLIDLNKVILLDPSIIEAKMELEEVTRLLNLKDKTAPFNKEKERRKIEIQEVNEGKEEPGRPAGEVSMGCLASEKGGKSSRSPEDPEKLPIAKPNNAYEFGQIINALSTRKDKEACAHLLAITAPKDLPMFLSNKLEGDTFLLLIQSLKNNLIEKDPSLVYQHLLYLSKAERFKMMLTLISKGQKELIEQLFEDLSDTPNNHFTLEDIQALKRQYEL

[3] = target: His-P1 (PIH1D1) (human) (UniProt Q9NWS0)

binding [1]	binding [2]	binding [3]	Substance
binds	binds	–	R1R2 complex (RUVBL1/RUVBL2) of the co-expression assays (from UniProt Q9Y265;Q9Y230)
–	–	binds	R3_(396-455), fragment of RPAP3 (from UniProt Q9H6T3 396-455) (domain or fragment)

— doi:10.1101/2025.01.27.635100 (bioRxiv, 2025)
